In PMC6166740:
No constants are given. Whether binding was seen depends on the method and setting. In cells and extracts the contact can be indirect. Binding can be weak; no strength is given. Sequences can lack the tags named with a protein.

Columns and labels:
Experiment in all cases: co-IP; FLAG-tagged and V5-tagged proteins coexpressed in HEK293T cells (calcium phosphate, 24 h); lysis in 1% Triton X-100, 20 mM Tris pH 7.5, 50 mM NaCl, 50 mM NaF, 15 mM Na4P2O7, 0.1 mM EDTA; anti-FLAG M2 agarose beads 2 h; Western blot with anti-V5 and anti-FLAG
[1] = target: T1, FLAG-tagged INVS (inversin) (UniProt Q9Y283)
T1 sequence: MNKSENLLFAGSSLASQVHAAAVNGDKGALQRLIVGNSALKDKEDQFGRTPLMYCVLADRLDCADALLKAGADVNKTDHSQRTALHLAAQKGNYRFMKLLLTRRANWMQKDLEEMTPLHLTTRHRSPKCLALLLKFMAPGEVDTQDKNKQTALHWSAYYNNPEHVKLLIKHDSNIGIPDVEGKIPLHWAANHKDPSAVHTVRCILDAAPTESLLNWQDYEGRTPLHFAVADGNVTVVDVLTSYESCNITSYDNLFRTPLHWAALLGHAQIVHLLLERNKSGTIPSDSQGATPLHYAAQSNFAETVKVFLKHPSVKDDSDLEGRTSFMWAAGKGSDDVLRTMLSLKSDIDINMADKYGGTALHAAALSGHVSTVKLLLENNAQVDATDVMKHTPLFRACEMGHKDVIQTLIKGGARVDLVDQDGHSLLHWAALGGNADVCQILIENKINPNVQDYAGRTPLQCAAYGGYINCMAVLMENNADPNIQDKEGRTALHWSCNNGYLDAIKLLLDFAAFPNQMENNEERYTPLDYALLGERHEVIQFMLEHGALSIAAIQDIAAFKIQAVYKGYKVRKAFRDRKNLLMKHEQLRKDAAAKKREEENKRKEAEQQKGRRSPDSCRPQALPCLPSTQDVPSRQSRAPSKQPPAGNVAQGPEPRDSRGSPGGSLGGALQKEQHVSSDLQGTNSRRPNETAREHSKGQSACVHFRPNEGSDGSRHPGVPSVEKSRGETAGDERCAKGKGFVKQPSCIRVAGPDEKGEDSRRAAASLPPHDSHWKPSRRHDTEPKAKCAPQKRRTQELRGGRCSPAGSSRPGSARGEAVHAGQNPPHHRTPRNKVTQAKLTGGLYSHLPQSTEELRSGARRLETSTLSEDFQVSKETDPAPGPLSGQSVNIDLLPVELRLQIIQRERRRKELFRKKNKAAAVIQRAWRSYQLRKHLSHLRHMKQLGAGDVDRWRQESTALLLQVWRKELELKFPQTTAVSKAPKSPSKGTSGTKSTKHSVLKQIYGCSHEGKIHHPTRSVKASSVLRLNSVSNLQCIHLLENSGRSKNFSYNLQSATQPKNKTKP

[2] = target: T2, FLAG-tagged NEK8 (NIMA-related kinase 8) (UniProt Q86SG6)
T2 sequence: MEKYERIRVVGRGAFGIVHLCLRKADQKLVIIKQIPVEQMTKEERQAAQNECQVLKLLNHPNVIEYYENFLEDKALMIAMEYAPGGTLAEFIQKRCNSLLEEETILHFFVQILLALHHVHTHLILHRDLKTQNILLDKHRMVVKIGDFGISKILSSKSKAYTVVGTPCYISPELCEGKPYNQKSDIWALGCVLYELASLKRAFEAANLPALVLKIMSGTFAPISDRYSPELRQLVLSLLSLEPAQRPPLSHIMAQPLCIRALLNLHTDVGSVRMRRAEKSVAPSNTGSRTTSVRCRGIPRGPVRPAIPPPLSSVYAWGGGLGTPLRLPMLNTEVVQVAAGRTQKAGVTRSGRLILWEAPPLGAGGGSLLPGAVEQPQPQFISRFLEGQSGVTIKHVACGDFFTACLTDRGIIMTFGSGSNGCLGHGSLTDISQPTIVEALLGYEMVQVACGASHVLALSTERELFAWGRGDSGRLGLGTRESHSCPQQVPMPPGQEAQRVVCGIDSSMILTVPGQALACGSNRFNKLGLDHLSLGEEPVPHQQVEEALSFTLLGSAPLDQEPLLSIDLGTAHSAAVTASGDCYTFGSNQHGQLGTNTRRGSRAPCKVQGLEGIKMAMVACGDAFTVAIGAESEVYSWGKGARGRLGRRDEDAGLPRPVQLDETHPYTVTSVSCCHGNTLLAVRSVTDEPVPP

[3] = target: T3, FLAG-tagged NME3 (NME/NM23 nucleoside-diphosphate kinase 3), wild type (human) (UniProt Q13232)
T3 sequence: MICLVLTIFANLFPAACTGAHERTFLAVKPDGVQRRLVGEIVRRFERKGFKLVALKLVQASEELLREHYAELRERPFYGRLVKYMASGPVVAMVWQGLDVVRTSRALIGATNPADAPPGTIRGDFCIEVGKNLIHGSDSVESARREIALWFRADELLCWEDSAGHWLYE

Measured: binding

V5-tagged NEK6 (human (cDNA from 293T cells)) (enzyme)
binds: all assays above
